According to PubChem BioAssay AID1487 (National Center for Advancing Translational Sciences (NCATS), 2009):
This is one part of the list. The main result of the screen is listed elsewhere. These columns were measured beside it and carry no call. The list favours compounds with an active or inconclusive main result. Words in brackets tell the shape of the fitted curve; partial curves, single points and poor fits give uncertain potencies.

Assay: qHTS Assay for Modulators of Lamin A Splicing
Conditions: HeLa LMNA splicing GFP/RFP minigene ratio, 48 h
Outline: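 S3 HeLa cells stably expressing lamin A-EGFP splicing minigene plus DsRed2, 600 cells/well, 48 h compound exposure at 37C. Laser-scanning cytometry; analysed as GFP (500-530 nm)/RFP (575-640 nm) total intensity ratio; 0.5% DMSO vehicle.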

[1] = measured here: GFP splicing reporter channel
[2] = measured here: RFP viability control channel

Row | SMILES | AC50 [1] | AC50 [2]
1 | O=c1c(-c2ccc(Cl)cc2)cnc2n1CCS2 | 0.0316 µM [falling, full curve, poor fit] | 
2 | COCCCNC(=O)c1ccc2c(c1)nc1n2CCCCC1 | 1.58 µM [rising, full curve] | 2.82 µM [rising, full curve]
3 | Cc1ccc2nc(N/N=C/c3ccccc3F)nc(-c3ccccc3)c2c1 |  | 22.4 µM [rising, partial curve, poor fit]
4 | CCOC(=O)CN1C(=O)N[C@@H](c2cccc(C(F)(F)F)c2)[C@H](C(=O)OC)[C@H]1C | 0.000891 µM [rising, full curve, poor fit] | 
5 | COc1ccc(CNCCC(c2ccc(F)cc2)c2ccc(OC)cc2)cc1 (stereo not given) |  | 12.6 µM [rising, single point]
6 | Oc1c(C(c2ccccc2Cl)N2CCN(Cc3ccccc3)CC2)sc2nc(-c3ccco3)nn12 (stereo not given) | 0.355 µM [falling, full curve, poor fit] | 
7 | Cc1cc(C)n(CC(=O)N/N=C/c2cc([N+](=O)[O-])ccc2O)n1 |  | 1.12 µM [rising, full curve, poor fit]
8 | O=C(CCCCn1c(=O)c2ccccc2n(Cc2ccccc2)c1=O)NC1CCN(Cc2ccccc2)CC1 | 17.8 µM [falling, partial curve, poor fit] | 14.1 µM [falling, partial curve, poor fit]
9 | COC(=O)c1cccc(NS(=O)(=O)c2ccc(OC)cc2)c1C |  | 5.01 µM [rising, partial curve]
10 | Cc1sc2nc(SCC(=O)NCc3cccs3)[nH]c(=O)c2c1C |  | 0.178 µM [rising, full curve, poor fit]
11 | O=C(O)Cc1sc(N/N=C\c2ccccc2)nc1-c1ccccc1 | 10 µM [rising, partial curve] | 10 µM [rising, partial curve]
12 | CNC(=S)N1CCN(C(c2ccccc2)c2ccccc2)CC1 | 0.0447 µM [falling, full curve, poor fit] | 0.0447 µM [falling, full curve]
13 | COCCCNCCCCOc1ccc(OCc2ccccc2)cc1 | 28.2 µM [falling, partial curve, poor fit] | 35.5 µM [falling, partial curve, poor fit]
14 | Cc1ccccc1NC(=O)CSc1ccsc1[N+](=O)[O-] |  | 15.8 µM [rising, partial curve, poor fit]
15 | CCc1cc(C(=O)c2ccc(C)cc2)c(NC(=O)CCl)s1 | 20 µM [falling, partial curve, poor fit] | 35.5 µM [falling, single point]
16 | C/C(=N\Nc1nc(Cl)c(Cl)cc1Cl)c1ccc(S(=O)(=O)NCc2ccco2)cc1 | 11.2 µM [rising, partial curve] | 11.2 µM [rising, partial curve]
17 | CC(=NCc1cccc(Cl)c1)c1nc(-c2ccco2)oc1O | 10 µM [rising, partial curve, poor fit] | 11.2 µM [rising, partial curve]
18 | O=C1OCC2=C1C(c1ccc3c(c1)OCO3)Sc1ccccc1N2 (stereo not given) |  | 15.8 µM [rising, single point]
19 | N#Cc1ccc(CSc2nnc(NC(=O)C3CC(=O)N(c4ccc5c(c4)OCCO5)C3)s2)cc1 (stereo not given) | 22.4 µM [rising, single point] | 35.5 µM [rising, single point]
20 | COCCn1c(=NC(=O)CSCC(=O)NC2CCCCC2)sc2cc(OC)ccc21 |  | 12.6 µM [rising, partial curve, poor fit]
21 | Cc1ccc(Cn2cnc3sc4c(c3c2=O)CCC4)c(C)c1 | 31.6 µM [rising, single point] | 28.2 µM [rising, single point]
22 | CC(=O)c1c(C)[nH]c(C(=O)Nc2ccc(Cl)c(S(=O)(=O)N(C)C)c2)c1C |  | 6.31 µM [rising, full curve]
23 | COc1ccc(NS(=O)(=O)c2ccc(NC(=O)C3CCCO3)cc2)cc1 (stereo not given) |  | 25.1 µM [rising, partial curve]
24 | CCCCOc1ccccc1C1CC(=O)NC2=C1C(=O)CCC2 (stereo not given) | 2.82 µM [falling, full curve] | 3.16 µM [falling, full curve]
25 | COc1ccccc1/C=C(/C#N)C(=O)O |  | 2.82 µM [rising, single point]
26 | CN(C)S(=O)(=O)c1ccc(C(=O)NCc2ccc3[nH]c4c(c3c2)CCCC4)cc1 |  | 12.6 µM [rising, single point]
27 | O=C(Nc1ccc2c(c1)OCO2)c1ccc(CN2CCOCC2)cc1 |  | 25.1 µM [rising, single point]

Row | SMILES | AC50 [1] | AC50 [2]
28 | Cc1ccc(C)c(NC(=O)c2cc(S(=O)(=O)NCCc3ccccc3)ccc2F)c1 | 0.01 µM [falling, full curve] | 
29 | COc1cccc(C(=O)Nc2c(C)nn(-c3ccccc3)c2C)c1 | 0.0126 µM [falling, full curve] | 0.0126 µM [falling, full curve, poor fit]
30 | O=C(Oc1c(CN2CCOCC2)cc(Cl)c2cccnc12)c1ccc(F)cc1 |  | 31.6 µM [rising, single point]
31 | O=C(O)CC1(CC(=O)Nc2cc3ccccc3cn2)CCCCC1 | 35.5 µM [falling, single point] | 
32 | Cc1ccc(S(=O)(=O)CCC(=O)Nc2cccc(C)c2)cc1 | 10 µM [rising, partial curve] | 
33 | CN(C)c1ccc(-c2nccc(NCCN3CCOCC3)n2)cc1 | 14.1 µM [rising, single point] | 35.5 µM [rising, single point]
34 | COc1ccc(C(=O)/C(C#N)=N/Nc2ccc([N+](=O)[O-])cc2)cc1 | 6.31 µM [falling, partial curve, poor fit] | 12.6 µM [falling, single point]
35 | CCc1cnc2c(c1SCc1c(F)cccc1Cl)c(=O)n(C)c(=O)n2C | 0.0562 µM [rising, full curve, poor fit] | 2.51 µM [rising, partial curve]
36 | Cc1ccc2[nH]c(=O)c(CN(CCN3CCOCC3)C(=O)Nc3ccc(F)cc3)cc2c1 |  | 12.6 µM [rising, single point]
37 | CCOC(=O)c1c(NC(=O)c2ccc(S(=O)(=O)N3CCC(C)CC3)cc2)sc2c1CCN(C(C)C)C2 | 20 µM [falling, partial curve, poor fit] | 25.1 µM [falling, partial curve]
38 | CCCCCC(=O)Nc1nc(C)c(-c2csc(Nc3cc(OC)ccc3OC)n2)s1 | 12.6 µM [falling, partial curve, poor fit] | 3.55 µM [falling, full curve, poor fit]
39 | COc1ccc(C2=NN(C(=O)CSc3cn(C)c4ccccc34)C(c3ccc(OC)cc3)C2)cc1 (stereo not given) |  | 15.8 µM [rising, single point]
40 | Fc1cccc(-n2c(-c3ccco3)nc3nc4ccccc4nc32)c1 | 8.91 µM [rising, partial curve, poor fit] | 2.51 µM [rising, full curve, poor fit]
41 | Cn1nnnc1SCCNCc1cc(Cl)ccc1OCc1ccccc1 |  | 35.5 µM [rising, single point]
42 | CCOc1ccc2nc(S(N)(=O)=O)sc2c1 |  | 20 µM [rising, partial curve, poor fit]
43 | COC(=O)[C@@]1(Cc2ccc(OC)cc2)[C@H]2c3cc(C(=O)N4CCCC4)n(Cc4ccc(C)o4)c3C[C@H]2CN1C(=O)c1ccccc1 | 3.55 µM [rising, single point] | 12.6 µM [rising, partial curve]
44 | O=C(CSCc1ccc(Br)cc1)N=Nc1c(O)[nH]c2ccccc12 |  | 35.5 µM [rising, partial curve, poor fit]
45 | Cc1cccc(CCNC(=O)C2CCC(CNS(=O)(=O)c3c(C)cc(C)cc3C)CC2)c1 (stereo not given) |  | 0.282 µM [falling, full curve, poor fit]
46 | O=C(Cc1ccc(NC(=O)N2CCCCc3ccccc32)cc1)NCc1ccccc1Br | 0.0355 µM [falling, full curve, poor fit] | 0.0447 µM [falling, full curve, poor fit]
47 | CCc1ccc(NC(=O)CSc2nc3n[nH]c(C)c3c(=N)n2-c2ccc(C)cc2)cc1 |  | 22.4 µM [falling, partial curve, poor fit]
48 | CCOc1ccc(C(CC(=O)O)n2cnnn2)cc1OC (stereo not given) | 1.78 µM [rising, single point] | 
49 | Cc1ccc(C(=O)c2cc([N+](=O)[O-])ccc2N2CCCCC2)cc1C |  | 2.82 µM [rising, partial curve]
50 | Nc1ccc(N)c(C(=O)O)c1 | 0.158 µM [rising, full curve, poor fit] | 
51 | Cc1cccc(NC(=O)c2ccc([N+](=O)[O-])o2)n1 | 12.6 µM [falling, partial curve] | 22.4 µM [falling, partial curve]
52 | Cc1cc([N+](=O)[O-])nn1CC(=O)NNC(=S)Nc1ccc(Cl)cc1 | 2.24 µM [rising, full curve] | 3.55 µM [rising, full curve, poor fit]
53 | COc1ccc(C(=O)C2CC2c2ccc3c(c2)OCO3)cc1 (stereo not given) | 35.5 µM [falling, partial curve, poor fit] | 

Exported with tabs: part of the list above.
Row	SMILES	AC50 [1]	AC50 [2]
49	Cc1ccc(C(=O)c2cc([N+](=O)[O-])ccc2N2CCCCC2)cc1C		2.82 µM [rising, partial curve]
50	Nc1ccc(N)c(C(=O)O)c1	0.158 µM [rising, full curve, poor fit]	
51	Cc1cccc(NC(=O)c2ccc([N+](=O)[O-])o2)n1	12.6 µM [falling, partial curve]	22.4 µM [falling, partial curve]
